# Data published in the supplement of paper PMC12067093, “Discovery and optimisation of a covalent ligand for TRIM25 and its application to targeted protein ubiquitination” (Chemical Science, 2025).
# Chains of the proteins cited; added tags and fusions are not shown. Lines headed by an entry give the natural chain unless they say otherwise; changes in a name come on top.
# UniProt Q96C23: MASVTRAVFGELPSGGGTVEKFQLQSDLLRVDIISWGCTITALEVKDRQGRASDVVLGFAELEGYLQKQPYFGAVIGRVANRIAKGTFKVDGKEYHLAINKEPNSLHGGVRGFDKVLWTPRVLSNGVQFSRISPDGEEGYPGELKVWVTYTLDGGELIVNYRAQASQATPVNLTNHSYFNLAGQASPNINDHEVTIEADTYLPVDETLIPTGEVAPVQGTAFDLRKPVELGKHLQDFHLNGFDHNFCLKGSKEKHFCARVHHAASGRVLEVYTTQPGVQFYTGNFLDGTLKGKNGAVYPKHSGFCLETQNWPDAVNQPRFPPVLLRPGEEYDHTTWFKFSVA
# UniProt Q8N2G8: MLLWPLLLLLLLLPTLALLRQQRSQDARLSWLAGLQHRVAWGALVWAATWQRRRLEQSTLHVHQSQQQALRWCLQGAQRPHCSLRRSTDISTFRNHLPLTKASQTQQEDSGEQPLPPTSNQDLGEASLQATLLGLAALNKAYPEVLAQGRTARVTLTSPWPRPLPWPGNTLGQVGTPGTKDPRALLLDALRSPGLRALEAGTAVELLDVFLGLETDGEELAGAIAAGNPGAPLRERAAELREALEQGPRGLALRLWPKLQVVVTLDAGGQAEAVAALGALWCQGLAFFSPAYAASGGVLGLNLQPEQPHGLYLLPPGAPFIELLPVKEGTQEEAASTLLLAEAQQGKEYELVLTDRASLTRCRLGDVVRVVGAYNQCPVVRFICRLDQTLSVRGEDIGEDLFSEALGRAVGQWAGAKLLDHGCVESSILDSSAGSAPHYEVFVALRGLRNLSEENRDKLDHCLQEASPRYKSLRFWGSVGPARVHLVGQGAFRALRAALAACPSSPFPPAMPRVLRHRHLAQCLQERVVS
# UniProt Q86SF2: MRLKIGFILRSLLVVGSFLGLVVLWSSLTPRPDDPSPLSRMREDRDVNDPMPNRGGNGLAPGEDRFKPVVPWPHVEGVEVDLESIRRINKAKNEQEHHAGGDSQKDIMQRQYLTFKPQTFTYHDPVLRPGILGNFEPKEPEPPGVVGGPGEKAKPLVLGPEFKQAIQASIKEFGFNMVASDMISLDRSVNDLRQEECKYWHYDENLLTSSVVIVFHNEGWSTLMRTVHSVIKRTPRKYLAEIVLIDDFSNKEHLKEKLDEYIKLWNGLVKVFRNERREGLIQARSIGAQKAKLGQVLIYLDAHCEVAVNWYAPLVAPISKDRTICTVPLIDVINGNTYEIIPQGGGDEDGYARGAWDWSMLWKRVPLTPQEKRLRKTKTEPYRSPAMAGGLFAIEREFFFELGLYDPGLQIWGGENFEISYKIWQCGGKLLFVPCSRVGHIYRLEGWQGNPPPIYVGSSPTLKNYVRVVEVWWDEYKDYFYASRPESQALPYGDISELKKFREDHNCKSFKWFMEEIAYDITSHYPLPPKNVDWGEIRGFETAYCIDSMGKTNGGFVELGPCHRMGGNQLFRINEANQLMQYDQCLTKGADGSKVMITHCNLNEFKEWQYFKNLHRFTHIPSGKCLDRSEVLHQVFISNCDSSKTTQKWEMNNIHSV
# UniProt P51570: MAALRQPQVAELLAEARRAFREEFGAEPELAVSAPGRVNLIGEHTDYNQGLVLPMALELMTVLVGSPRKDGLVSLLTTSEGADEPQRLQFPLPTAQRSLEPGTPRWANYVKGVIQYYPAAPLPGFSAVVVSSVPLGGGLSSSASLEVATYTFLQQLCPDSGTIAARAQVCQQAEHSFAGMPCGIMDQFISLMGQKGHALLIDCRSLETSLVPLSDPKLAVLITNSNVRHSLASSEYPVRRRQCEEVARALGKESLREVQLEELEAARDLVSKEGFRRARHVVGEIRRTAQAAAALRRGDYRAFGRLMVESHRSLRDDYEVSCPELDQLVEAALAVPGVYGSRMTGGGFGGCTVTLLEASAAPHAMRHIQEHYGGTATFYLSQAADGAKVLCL
# UniProt Q92616, whole entry, looked up: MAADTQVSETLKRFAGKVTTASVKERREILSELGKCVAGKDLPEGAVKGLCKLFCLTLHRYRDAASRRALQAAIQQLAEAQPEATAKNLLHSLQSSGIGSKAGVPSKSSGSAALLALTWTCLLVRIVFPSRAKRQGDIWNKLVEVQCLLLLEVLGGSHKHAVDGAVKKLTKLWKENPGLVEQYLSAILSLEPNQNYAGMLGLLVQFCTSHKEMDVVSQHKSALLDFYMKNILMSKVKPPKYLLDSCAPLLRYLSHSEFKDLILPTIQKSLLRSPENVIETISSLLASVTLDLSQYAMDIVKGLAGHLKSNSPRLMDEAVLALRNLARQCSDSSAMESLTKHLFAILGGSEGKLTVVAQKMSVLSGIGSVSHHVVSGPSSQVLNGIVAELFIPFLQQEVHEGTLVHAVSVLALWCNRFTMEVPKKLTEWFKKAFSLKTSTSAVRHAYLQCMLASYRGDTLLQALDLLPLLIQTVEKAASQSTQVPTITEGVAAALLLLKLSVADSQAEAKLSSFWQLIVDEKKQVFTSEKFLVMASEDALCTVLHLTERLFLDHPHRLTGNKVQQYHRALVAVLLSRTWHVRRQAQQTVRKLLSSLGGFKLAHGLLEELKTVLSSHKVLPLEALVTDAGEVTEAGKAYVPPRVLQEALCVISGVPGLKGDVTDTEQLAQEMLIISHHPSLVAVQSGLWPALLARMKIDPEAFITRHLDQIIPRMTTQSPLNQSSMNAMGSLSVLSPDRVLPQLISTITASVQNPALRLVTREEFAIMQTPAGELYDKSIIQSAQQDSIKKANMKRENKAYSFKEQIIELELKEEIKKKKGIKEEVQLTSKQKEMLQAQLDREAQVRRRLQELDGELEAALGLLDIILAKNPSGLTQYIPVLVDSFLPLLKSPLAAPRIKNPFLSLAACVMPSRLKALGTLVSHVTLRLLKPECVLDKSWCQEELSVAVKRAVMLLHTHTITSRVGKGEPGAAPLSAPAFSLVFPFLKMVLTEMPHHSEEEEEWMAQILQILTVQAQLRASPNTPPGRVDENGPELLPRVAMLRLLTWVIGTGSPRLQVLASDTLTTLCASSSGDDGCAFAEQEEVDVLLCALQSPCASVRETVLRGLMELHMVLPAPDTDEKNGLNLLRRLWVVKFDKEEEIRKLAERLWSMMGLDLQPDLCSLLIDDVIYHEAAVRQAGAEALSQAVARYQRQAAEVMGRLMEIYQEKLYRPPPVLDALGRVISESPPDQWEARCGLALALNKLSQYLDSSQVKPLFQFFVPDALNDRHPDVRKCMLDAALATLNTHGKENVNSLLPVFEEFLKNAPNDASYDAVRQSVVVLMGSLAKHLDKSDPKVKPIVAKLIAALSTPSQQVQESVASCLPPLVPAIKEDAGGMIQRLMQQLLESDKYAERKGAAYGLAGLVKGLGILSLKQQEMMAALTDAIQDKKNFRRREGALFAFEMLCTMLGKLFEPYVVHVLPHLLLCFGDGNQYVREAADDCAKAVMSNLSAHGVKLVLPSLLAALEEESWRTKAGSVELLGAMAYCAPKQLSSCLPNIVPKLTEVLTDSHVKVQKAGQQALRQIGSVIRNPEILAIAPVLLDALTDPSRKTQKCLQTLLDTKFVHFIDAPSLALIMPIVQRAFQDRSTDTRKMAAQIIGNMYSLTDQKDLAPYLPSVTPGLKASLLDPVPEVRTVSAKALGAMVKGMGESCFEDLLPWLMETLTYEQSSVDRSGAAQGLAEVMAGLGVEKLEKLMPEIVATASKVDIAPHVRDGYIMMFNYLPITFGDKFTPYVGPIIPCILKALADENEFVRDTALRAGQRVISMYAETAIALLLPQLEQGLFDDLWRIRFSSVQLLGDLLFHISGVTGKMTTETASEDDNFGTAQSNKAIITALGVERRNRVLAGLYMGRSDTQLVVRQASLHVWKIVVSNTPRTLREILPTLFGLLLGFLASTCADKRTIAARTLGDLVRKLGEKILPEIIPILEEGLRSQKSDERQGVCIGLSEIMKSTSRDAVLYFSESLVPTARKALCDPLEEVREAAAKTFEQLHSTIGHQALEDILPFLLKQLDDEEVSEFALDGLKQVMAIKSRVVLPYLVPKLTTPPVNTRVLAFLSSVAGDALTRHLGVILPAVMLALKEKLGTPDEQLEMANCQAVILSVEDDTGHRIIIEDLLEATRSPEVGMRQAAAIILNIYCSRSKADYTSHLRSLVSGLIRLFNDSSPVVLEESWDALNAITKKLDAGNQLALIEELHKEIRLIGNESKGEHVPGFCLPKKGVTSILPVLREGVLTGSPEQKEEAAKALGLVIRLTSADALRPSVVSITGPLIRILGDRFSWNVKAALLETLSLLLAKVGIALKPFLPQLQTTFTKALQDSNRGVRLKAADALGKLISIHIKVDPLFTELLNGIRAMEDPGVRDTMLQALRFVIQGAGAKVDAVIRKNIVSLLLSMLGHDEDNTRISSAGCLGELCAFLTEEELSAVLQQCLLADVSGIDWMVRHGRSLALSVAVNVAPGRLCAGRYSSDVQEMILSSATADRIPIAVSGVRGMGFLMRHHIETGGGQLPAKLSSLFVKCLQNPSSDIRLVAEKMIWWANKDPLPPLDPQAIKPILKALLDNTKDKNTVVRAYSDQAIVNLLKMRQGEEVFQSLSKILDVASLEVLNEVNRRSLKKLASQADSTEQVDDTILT
# UniProt Q9H840: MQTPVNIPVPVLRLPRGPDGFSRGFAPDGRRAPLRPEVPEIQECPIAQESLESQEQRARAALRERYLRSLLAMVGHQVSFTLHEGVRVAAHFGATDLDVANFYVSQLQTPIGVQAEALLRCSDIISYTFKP
# UniProt O14908: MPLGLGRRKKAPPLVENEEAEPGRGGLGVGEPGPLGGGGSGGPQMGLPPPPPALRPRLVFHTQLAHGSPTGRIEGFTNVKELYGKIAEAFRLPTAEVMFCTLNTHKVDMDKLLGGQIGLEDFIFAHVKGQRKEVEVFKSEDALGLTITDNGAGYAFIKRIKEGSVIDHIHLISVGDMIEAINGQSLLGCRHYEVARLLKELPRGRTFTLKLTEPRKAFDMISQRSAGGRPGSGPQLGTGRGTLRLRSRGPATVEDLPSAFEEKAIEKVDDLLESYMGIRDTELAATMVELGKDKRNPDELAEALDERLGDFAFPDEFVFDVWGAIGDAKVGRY
# UniProt Q9Y2X7: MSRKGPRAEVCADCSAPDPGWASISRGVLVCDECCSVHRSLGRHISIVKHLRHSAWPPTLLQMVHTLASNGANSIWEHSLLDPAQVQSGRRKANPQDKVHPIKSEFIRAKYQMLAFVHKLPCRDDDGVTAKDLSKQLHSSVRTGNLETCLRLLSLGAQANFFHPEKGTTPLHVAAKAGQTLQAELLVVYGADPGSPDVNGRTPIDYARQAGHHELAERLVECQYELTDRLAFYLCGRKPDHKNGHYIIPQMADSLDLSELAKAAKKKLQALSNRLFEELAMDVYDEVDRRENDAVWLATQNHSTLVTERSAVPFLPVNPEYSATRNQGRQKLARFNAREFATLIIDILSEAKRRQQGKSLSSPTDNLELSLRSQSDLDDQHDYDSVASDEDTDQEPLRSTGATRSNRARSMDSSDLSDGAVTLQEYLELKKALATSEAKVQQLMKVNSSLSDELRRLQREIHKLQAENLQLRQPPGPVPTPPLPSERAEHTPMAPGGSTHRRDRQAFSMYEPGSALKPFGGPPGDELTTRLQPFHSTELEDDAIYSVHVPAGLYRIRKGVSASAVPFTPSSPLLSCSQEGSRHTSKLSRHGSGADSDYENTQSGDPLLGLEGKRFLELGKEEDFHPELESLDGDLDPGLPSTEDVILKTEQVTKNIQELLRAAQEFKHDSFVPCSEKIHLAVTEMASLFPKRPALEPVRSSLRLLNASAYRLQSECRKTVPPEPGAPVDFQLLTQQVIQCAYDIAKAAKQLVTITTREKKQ
# UniProt Q9NZC3: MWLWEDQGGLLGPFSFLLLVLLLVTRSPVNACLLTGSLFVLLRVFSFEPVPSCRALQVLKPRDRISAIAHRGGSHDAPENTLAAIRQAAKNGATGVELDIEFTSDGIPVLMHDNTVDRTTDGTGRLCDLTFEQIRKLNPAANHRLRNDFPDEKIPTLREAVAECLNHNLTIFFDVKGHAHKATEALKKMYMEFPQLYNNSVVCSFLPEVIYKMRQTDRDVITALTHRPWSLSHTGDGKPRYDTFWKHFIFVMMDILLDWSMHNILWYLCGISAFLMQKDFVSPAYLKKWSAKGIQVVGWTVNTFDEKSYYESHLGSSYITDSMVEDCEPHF
# UniProt P04406: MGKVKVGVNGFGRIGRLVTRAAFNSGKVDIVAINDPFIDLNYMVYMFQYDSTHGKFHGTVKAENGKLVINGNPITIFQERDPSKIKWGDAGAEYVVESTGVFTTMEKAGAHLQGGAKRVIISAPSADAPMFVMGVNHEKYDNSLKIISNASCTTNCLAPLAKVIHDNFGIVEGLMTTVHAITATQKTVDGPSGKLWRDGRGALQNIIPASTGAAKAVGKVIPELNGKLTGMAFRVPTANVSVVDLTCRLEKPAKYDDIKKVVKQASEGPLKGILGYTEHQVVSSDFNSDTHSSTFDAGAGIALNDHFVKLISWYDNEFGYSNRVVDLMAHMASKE
# Some of the results follow.
# Compound: CC1Cc2ccccc2N1C(=O)C1CCCN(C1)C(=O)CCl (mixture of isomers) [TRIM25 ligand 11 (diastereomer mixture)]
# Assay: probe-labelled cysteine peptide fold change vs DMSO (competition) (log2 fold change); higher = less target engagement (more negative = stronger competition)
# Conditions: THP-1, incubation time: 4 h
# 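Further: competitive chemoproteomic profiling in live THP-1 cells with an iodoacetamide desthiobiotin (IA-DTB) probe, comparing probe-labelled peptide intensities in compound-treated cells against DMSO-treated controls.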
Target,probe-labelled cysteine peptide fold change (10 µM),probe-labelled cysteine peptide fold change (50 µM)
GALM_Q96C23_38_VDIISWGCTITALEVK (UniProt Q96C23),-0.0103,-0.034
GHDC_Q8N2G8_523_HLAQCLQER (UniProt Q8N2G8),-0.0423,-0.00951
GATAD2B_Q8WXI9_308_GPPKPGLVRTTTPNMNPAINYQPQSSSSVPCQR (UniProt Q8WXI9),-0.0855,-0.263
GALNT7_Q86SF2_545_GFETAYCIDSMGK (UniProt Q86SF2),-0.00732,0.0308
GIPC3_Q8TF64_152+168_IEAVCVGDSIEAINDHSIVGCR (UniProt Q8TF64),-0.067,-0.00794
GART_P22102_134_AFTKPEEACSFILSADFPALVVK (UniProt P22102),-0.00392,-0.0167
GEMIN5_Q8TEQ6_82_VSGFTFSHHPGQYNLCATSSDDGTVK (UniProt Q8TEQ6),0.376,0.024
GEMIN8_Q9NWZ8_180_QQQLDAERLDSYVNADHDLYCNTR (UniProt Q9NWZ8),-0.131,-0.194
GEMIN2_O14893_264_DDERVPALNLLICLVSR (UniProt O14893),0.0933,-0.181
GALK1_P51570_351_MTGGGFGGCTVTLLEASAAPHAMR (UniProt P51570),0.0133,-0.0268
GCN1_Q92616_2558_CLQNPSSDIR (UniProt Q92616),0.0855,0.113
GATC_O43716_99_SDNVVEGNCADELLQNSHR (UniProt O43716),-0.159,-0.276
GEMIN7_Q9H840_44_APLRPEVPEIQECPIAQESLESQEQR (UniProt Q9H840),-0.0124,-0.0042
GIPC1_O14908_189_EGSVIDHIHLISVGDMIEAINGQSLLGCR (UniProt O14908),0.0664,-0.152
GANAB_Q14697_41+47_TCEESSFCK (UniProt Q14697),-0.0249,-0.041
GIT1_Q9Y2X7_11+14_AEVCADCSAPDPGWASISR (UniProt Q9Y2X7),-0.0503,0.223
GCN1_Q92616_55_LFCLTLHR (UniProt Q92616),-0.0639,-0.0156
GATAD1_Q8WUU5_12_PLGLKPTCSVCK (UniProt Q8WUU5),0.124,0.0534
GDE1_Q9NZC3_327_SYYESHLGSSYITDSMVEDCEPHF (UniProt Q9NZC3),0.00784,-0.357

Target,probe-labelled cysteine peptide fold change (10 µM),probe-labelled cysteine peptide fold change (50 µM)
GAMT_Q14353_91_VQEAPIDEHWIIECNDGVFQR (UniProt Q14353),-0.0655,-0.021
GANAB_Q14697_423_WNYRDEADVLEVDQGFDDHNLPCDVIWLDIEHADGKR (UniProt Q14697),-0.0428,0.0188
GGNBP2_Q9H3C7_586_DTHPESCCSSEK (UniProt Q9H3C7),-0.224,-0.312
GHDC_Q8N2G8_73_WCLQGAQRPHCSLR (UniProt Q8N2G8),0.249,-0.0412
GIT1_Q9Y2X7_576_KGVSASAVPFTPSSPLLSCSQEGSR (UniProt Q9Y2X7),-0.159,-0.26
GBE1_Q04446_88_CADGGLYCK (UniProt Q04446),0.000309,0.0761
GIT2_Q14161_11+14_SSEVCADCSGPDPSWASVNR (UniProt Q14161),0.117,-0.284
GDI2_P50395_202_TDDYLDQPCYETINR (UniProt P50395),0.127,-0.0387
GARS_P41250_180_QHFIQEEQILEIDCTMLTPEPVLK (UniProt P41250),-0.0562,-0.00609
GATAD2B_Q8WXI9_444_ILCEQCMTSNQK (UniProt Q8WXI9),-0.15,-0.124
GCN1_Q92616_1595_CLQTLLDTK (UniProt Q92616),0.0151,0.0572
GAPDH_P04406_152+156_IISNASCTTNCLAPLAK (UniProt P04406),-0.0357,0.0175
GAPDH_P04406_247_LTGMAFRVPTANVSVVDLTCR (UniProt P04406),-0.459,-0.142
GCC2_Q8IWJ2_92_AETEQQCLSLKK (UniProt Q8IWJ2),0.0131,-0.0205
GGA2_Q9UJY4_429_NLLDLLSAQPAPCPLNYVSQK (UniProt Q9UJY4),-0.13,-0.15
GBF1_Q92538_1430_IFVEASLNGGCK (UniProt Q92538),-0.0258,-0.122
GALT_P07902_75_HDPLNPLCPGAIR (UniProt P07902),0.0699,-0.0264
GALNT7_Q86SF2_562_TNGGFVELGPCHR (UniProt Q86SF2),0.112,0.133
